Structures can show the parent of a compound that is named as a salt.
Molecular target: T1, IN–GCN2 interaction (UniProt P04585+Q9P2K8)
T1 construct: expressed as a truncated version (192-1024) in fusion after a glutathione S-transferase tag; Recombinant full-length IN was expressed in E. coli BL21 pLys; purchased SignalChem (GCN2); IN made in house in E. coli BL21 pLys E12-11G; host or cells: E. coli BL21 pLys (IN)
Test: IN–GCN2 interaction assay (AlphaLISA)
Format: binding, HIV-1 IN / human GCN2
Settings: pilot screen, single dose of 100 µM; read-out: inhibition of the IN–GCN2 interaction signal
From the text: We developed an in vitro plate-based assay to monitor the interaction between GCN2 and IN using the AlphaLISA technology (Figure 1). Taking advantage of the tags present on each recombinant protein (6xHis for IN prepared “in-house”, and GST for GCN2 commercially available), we used specific beads that fluoresce only when they are in close proximity (<200 nm). The signal obtained (light count) is directly proportional to the binding of IN to GCN2 (homogenous solution assay at steady state). […] Accordingly, we decided to perform all further experiments at 25 nM and 700 nM for GCN2 and IN, respectively that correspond to the experimental conditions used in the in vitro phosphorylation assay.
IN–GCN2 interaction assay. Protein–protein interactions were monitored using the AlphaLISA technology (Perkin Elmer) taking advantage of the GST and 6xHis tags of GCN2 and IN, respectively. Accordingly, AlphaScreen GSH Donor beads and AlphaLISA Nickel Acceptor beads were used (Perkin Elmer). Reactions were carried out at room temperature by incubating GCN2 with drugs or DMSO for 5 min before addition of AlphaLISA Nickel Acceptor beads. […] Alpha signal was measured using an EnSight plate reader (Perkin Elmer) 120 min after the addition of the latest component of the reaction (unless indicated otherwise).

Chains of the proteins cited; added tags and fusions are not shown. Residues count along the entry.
UniProt Q9P2K8, 192-1024: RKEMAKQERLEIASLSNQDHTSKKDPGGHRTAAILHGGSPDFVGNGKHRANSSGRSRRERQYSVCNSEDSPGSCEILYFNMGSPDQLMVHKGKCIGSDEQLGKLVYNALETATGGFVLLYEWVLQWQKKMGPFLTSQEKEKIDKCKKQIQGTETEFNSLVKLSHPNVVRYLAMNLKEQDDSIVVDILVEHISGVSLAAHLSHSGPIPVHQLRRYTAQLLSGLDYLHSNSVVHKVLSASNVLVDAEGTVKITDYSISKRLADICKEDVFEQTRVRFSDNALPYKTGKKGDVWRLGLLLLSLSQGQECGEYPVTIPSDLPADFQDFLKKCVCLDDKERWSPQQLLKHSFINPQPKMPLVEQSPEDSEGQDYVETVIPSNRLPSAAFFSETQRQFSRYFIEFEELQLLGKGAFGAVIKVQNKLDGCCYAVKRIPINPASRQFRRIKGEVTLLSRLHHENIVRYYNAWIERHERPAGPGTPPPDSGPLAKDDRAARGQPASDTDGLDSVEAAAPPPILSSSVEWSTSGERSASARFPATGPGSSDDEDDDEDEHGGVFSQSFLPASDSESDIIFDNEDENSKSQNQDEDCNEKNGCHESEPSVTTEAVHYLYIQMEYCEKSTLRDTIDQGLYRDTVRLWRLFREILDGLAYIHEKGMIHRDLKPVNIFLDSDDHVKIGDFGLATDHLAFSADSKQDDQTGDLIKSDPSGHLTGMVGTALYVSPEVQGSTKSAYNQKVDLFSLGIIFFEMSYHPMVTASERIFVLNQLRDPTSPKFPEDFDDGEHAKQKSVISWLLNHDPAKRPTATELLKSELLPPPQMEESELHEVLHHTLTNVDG

SMILES: CC/C(=C(\c1ccccc1)c1ccc(OCCN(C)C)cc1)c1ccccc1 [NSC180973, Tamoxifen citrate]
- inhibition at 100 µM: 89.8%

— PMC8434491, “Targeting the Integrated Stress Response Kinase GCN2 to Modulate Retroviral Integration” (Molecules, 2021)
